# Laboratory results as given in article doi:10.1101/2021.05.17.443621 (bioRxiv, 2021).
# Read-outs that look alike come from different tables or passages of the source. Results are given in words; binding and its absence hold for the method and conditions named. In cells and extracts the contact can be indirect. These calls come from enrichment with a bait or labelling near it, and not all partners need be listed. Where a sequence is shown, tags or fusion partners need not be part of it.
# B1: Stt3p (protein, UniProt P39007 1-718)
# chain: MGSDRSCVLSVFQTILKLVIFVAIFGAAISSRLFAVIKFESIIHEFDPWFNYRATKYLVNNSFYKFLNWFDDRTWYPLGRVTGGTLYPGLMTTSAFIWHALRNWLGLPIDIRNVCVLFAPLFSGVTAWATYEFTKEIKDASAGLLAAGFIAIVPGYISRSVAGSYDNEAIAITLLMVTFMFWIKAQKTGSIMHATCAALFYFYMVSAWGGYVFITNLIPLHVFLLILMGRYSSKLYSAYTTWYAIGTVASMQIPFVGFLPIRSNDHMAALGVFGLIQIVAFGDFVKGQISTAKFKVIMMVSLFLILVLGVVGLSALTYMGLIAPWTGRFYSLWDTNYAKIHIPIIASVSEHQPVSWPAFFFDTHFLIWLFPAGVFLLFLDLKDEHVFVIAYSVLCSYFAGVMVRLMLTLTPVICVSAAVALSKIFDIYLDFKTSDRKYAIKPAALLAKLIVSGSFIFYLYLFVFHSTWVTRTAYSSPSVVLPSQTPDGKLALIDDFREAYYWLRMNSDEDSKVAAWWDYGYQIGGMADRTTLVDNNTWNNTHIAIVGKAMASPEEKSYEILKEHDVDYVLVIFGGLIGFGGDDINKFLWMIRISEGIWPEEIKERDFYTAEGEYRVDARASETMRNSLLYKMSYKDFPQLFNGGQATDRVRQQMITPLDVPPLDYFDEVFTSENWMVRIYQLKKDDAQGRTLRDVGELTRSSTKTRRSIKRPELGLRV
# modifications: N-glycan at N539
# B2: Ost1p (protein, UniProt P41543 23-476)
# chain: AQYEPPATWENVDYKRTIDVSNAYISETIEITIKNIASEPATEYFTAFESGIFSKVSFFSAYFTNEATFLNSQLLANSTTAPGDDGESEIRYGIIQFPNAISPQEEVSLVIKSFYNTVGIPYPEHVGMSEEQHLLWETNRLPLSAYDTKKASFTLIGSSSFEEYHPPNDESLLGKANGNSFEFGPWEDIPRFSSNETLAIVYSHNAPLNQVVNLRRDIWLSHWASTIQFEEYYELTNKAAKLSKGFSRLELMKQIQTQNMRQTHFVTVLDMLLPEGATDHYFTDLVGLVSTSHAERDHFFIRPRFPIFGGWNYNFTVGWTNKLSDFLHVSSGSDEKFVASIPILNGPPDTVYDNVELSVFLPEGAEIFDIDSPVPFTNVSIETQKSYFDLNKGHVKLTFSYRNLISQVANGQVLIKYDYPKSSFFKKPLSIACYIFTALMGVFVLKTLNMNVTN
# modifications: N-glycans at N99 and N217 (N217 variably occupied)
# B3: Wbp1p (protein, UniProt P33767 21-430)
# chain: TQTSRTLVLYDQSTEPLEEYSVYLKDLEQRNYKLEYLDINSTSTTVDLYDKEQRLFDNIIVFPTKGGKNLARQIPVKQLIKFFENEGNILCMSSPGAVPNTIRLFLNELGIYPSPKGHVIRDYFSPSSEELVVSSNHLLNKYVYNARKSEDFVFGESSAALLENREQIVPILNAPRTSFTESKGKCNSWTSGSQGFLVVGFQNLNNARLVWIGSSDFLKNKNQDSNQEFAKELLKWTFNEKSVIKSVHAVHSHADGTSYDEEPYKIKDKVIYSVGFSEWNGEEWLPHIADDIQFELRQVDPYYRLTLSPSGNDSETQYYTTGEFILPDRHGVFTFLTDYRKIGLSFTTDKDVKAIRHLANDEYPRSWEISNSWVYISAICGVIVAWIFFVVSFVTTSSVGKKLETFKKTN
# modifications: N-glycans at N332 and N60 (N60 variably occupied)
# B4: Ost6p (natural protein, yeast, UniProt Q03723 25-332, looked up)
# chain: TASHNIDDILQLKDDTGVITVTADNYPLLSRGVPGYFNILYITMRGTNSNGMSCQLCHDFEKTYHAVADVIRSQAPQSLNLFFTVDVNEVPQLVKDLKLQNVPHLVVYPPAESNKQSQFEWKTSPFYQYSLVPENAENTLQFGDFLAKILNISITVPQAFNVQEFVYYFVACMVVFIFIKKVILPKVTNKWKLFSMILSLGILLPSITGYKFVEMNAIPFIARDAKNRIMYFSGGSGWQFGIEIFSVSLMYIVMSALSVLLIYVPKISCVSEKMRGLLSSFLACVLFYFFSYFISCYLIKNPGYPIVF
# B5: Ost3p (protein, UniProt P48439 23-350)
# chain: MSSNRLLKLANKSPKKIIPLKDSSFENILAPPHENAYIVALFTATAPEIGCSLCLELESEYDTIVASWFDDHPDAKSSNSDTSIFFTKVNLEDPSKTIPKAFQFFQLNNVPRLFIFKPNSPSILDHSVISISTDTGSERMKQIIQAIKQFSQVNDFSLHLPMDWTPIITSTIITFITVLLFKKQSKLMFSIISSRIIWATLSTFFIICMISAYMFNQIRNTQLAGVGPKGEVMYFLPNEFQHQFAIETQVMVLIYGTLAALVVVLVKGIQFLRSHLYPETKKAYFIDAILASFCALFIYVFFAALTTVFTIKSPAYPFPLLRLSAPFK
# Tests used:
# [1] = molecular target: T1, 1D4-tagged version of Ost4p (yeast) (UniProt Q99380); assay: affinity purification with mass spectrometry
# T1 sequence: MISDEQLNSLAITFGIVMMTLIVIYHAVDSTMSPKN
# [2] = molecular target: T1, 1D4-tagged version of Ost4p (yeast); assay: affinity purification with mass spectrometry; remark: listed apart in the source
Molecule,binding [1],binding [2]
Ost6p truncation that lacks the luminal domain (yeast) (domain or fragment),binds,–
Ost3p truncation that lacks the luminal domain (yeast) (domain or fragment),binds,–
OST6 TM2-4 (yeast) (domain or fragment),binds,–
OST3 TM2-4 (yeast) (domain or fragment),binds,–
B1,–,binds
B2,–,binds
B3,–,binds
B4,–,binds
B5,–,binds
